PubChem BioAssay AID1053208, Peter MacCallum Cancer Centre, 2014
Shown is a random part of about 17,000 deposited reagents. 788 of them (4.7%) count as active. 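Calls rest on z-score classes alone; an extra cut-off of viability at most 70% of control was not applied to them.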 Unmarked entries are inactive. Further read-outs or replicates are left out here.

- Assay: 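Genes whose silencing cuts survival of bone tumour cells only with doxorubicin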 (primary screen)
- Cell system: mouse osteosarcoma cells, early-passage culture from an engineered mouse model of fibroblastic bone tumour
- Reagents: siRNA pool against mouse genes, 40 nM
- Duration: about 120 h (48 h before drug, then 72 h with drug)
- Treatment: doxorubicin 100 nM for 72 h, roughly 30-40% inhibitory dose
- Detection: 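Viability read as ATP luminescence after 72 h of 100 nM doxorubicin or none, duplicate wells averaged, scaled to non-targeting siRNA, then expressed as robust z-scores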
- Reading the numbers: viability z-score with doxorubicin: higher = more viable cells under doxorubicin; viability z-score without drug: higher = more viable cells with knock-down alone
- Active means: 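a pool counts as active when its viability z-score with doxorubicin is -2 or below and its z-score without drug lies between -2 and 2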

What did the screen give for Ccdc28a (coiled-coil domain containing 28A)?
combined z-score class: no change with or without drug; viability z-score with doxorubicin: 0.67; viability z-score without drug: 0.17

With Chst8 (carbohydrate sulfotransferase 8), what was measured?
combined z-score class: no change with or without drug; viability z-score with doxorubicin: 0.45; viability z-score without drug: 1.18

For Npvf (neuropeptide VF precursor), what does the deposit list?
combined z-score class: no change with or without drug; viability z-score with doxorubicin: 0; viability z-score without drug: -1.18

Which result is listed for Ppat (phosphoribosyl pyrophosphate amidotransferase)?
combined z-score class: no change with or without drug; viability z-score with doxorubicin: 0.45; viability z-score without drug: -0.34

For Adarb2 (adenosine deaminase, RNA-specific, B2), what was measured?
combined z-score class: no change with or without drug; viability z-score with doxorubicin: 0; viability z-score without drug: 1.01

How did the screen score Dmac2l (distal membrane arm assembly component 2 like)?
combined z-score class: no change with or without drug; viability z-score with doxorubicin: 0.34; viability z-score without drug: 0.84

Which result is listed for Gtf2h3 (general transcription factor IIH, polypeptide 3)?
combined z-score class: no change with or without drug; viability z-score with doxorubicin: -1.01; viability z-score without drug: -0.17

For Or6c216 (olfactory receptor family 6 subfamily C member 216), how do the results read?
combined z-score class: low cell count with doxorubicin only (active); viability z-score with doxorubicin: -2.36; viability z-score without drug: -0.84

How did the screen score Pcnx1 (pecanex 1)?
combined z-score class: no change with or without drug; viability z-score with doxorubicin: 0.45; viability z-score without drug: -0.34

What is on record for Nme7 (NME/NM23 family member 7)?
combined z-score class: no change with or without drug; viability z-score with doxorubicin: 0.11; viability z-score without drug: 1.18

Which result is listed for Gimap3 (GTPase, IMAP family member 3)?
combined z-score class: no change with or without drug; viability z-score with doxorubicin: -0.56; viability z-score without drug: -0.17

What is on record for Cep15 (centrosomal protein 15)?
combined z-score class: no change with or without drug; viability z-score with doxorubicin: 0.67; viability z-score without drug: 0.51

What is on record for Gipc1 (GIPC PDZ domain containing family, member 1)?
combined z-score class: no change with or without drug; viability z-score with doxorubicin: -0.56; viability z-score without drug: 0.51

With Ift122 (intraflagellar transport 122), what does the deposit list?
combined z-score class: no change with or without drug; viability z-score with doxorubicin: -0.9; viability z-score without drug: -0.51

What is on record for Sntg1 (syntrophin, gamma 1)?
combined z-score class: no change with or without drug; viability z-score with doxorubicin: 1.12; viability z-score without drug: 0.51

What did the screen give for Ak8 (adenylate kinase 8)?
combined z-score class: no change with or without drug; viability z-score with doxorubicin: 1.35; viability z-score without drug: 0

With Nat9 (N-acetyltransferase 9 (GCN5-related, putative)), what was measured?
combined z-score class: no change with or without drug; viability z-score with doxorubicin: -0.67; viability z-score without drug: 0.67

What did the screen give for Calu (calumenin)?
combined z-score class: no change with or without drug; viability z-score with doxorubicin: 1.69; viability z-score without drug: 0.51

For Tcerg1 (transcription elongation regulator 1 (CA150)), what does the deposit list?
combined z-score class: no change with or without drug; viability z-score with doxorubicin: 0.56; viability z-score without drug: 0.67

2 of these entries in another layout.
| Target gene | combined z-score class | viability z-score with doxorubicin | viability z-score without drug |
| --- | --- | --- | --- |
| Adarb2 (adenosine deaminase, RNA-specific, B2) | no change with or without drug | 0 | 1.01 |
| Dmac2l (distal membrane arm assembly component 2 like) | no change with or without drug | 0.34 | 0.84 |
